Measured values as given in the supplement of paper PMC10060354, “Discovery of a small molecule ligand of FRS2 that inhibits invasion and tumor growth” (Cellular Oncology, 2022).
Many values rest on one well or one pass, so single values are uncertain.

By UniProt entry, the sequences of proteins in these tests, tags left out. Where a name states a change or a piece, a line headed by the entry shows the natural chain unless it says otherwise.
UniProt P38117: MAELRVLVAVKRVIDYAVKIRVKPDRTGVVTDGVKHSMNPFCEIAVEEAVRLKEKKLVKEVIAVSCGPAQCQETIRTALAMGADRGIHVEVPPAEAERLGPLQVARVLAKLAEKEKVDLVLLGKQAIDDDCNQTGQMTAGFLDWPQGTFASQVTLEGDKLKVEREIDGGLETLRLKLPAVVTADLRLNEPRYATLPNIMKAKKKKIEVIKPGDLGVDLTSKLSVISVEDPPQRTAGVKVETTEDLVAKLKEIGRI
UniProt Q7RTP6, whole entry: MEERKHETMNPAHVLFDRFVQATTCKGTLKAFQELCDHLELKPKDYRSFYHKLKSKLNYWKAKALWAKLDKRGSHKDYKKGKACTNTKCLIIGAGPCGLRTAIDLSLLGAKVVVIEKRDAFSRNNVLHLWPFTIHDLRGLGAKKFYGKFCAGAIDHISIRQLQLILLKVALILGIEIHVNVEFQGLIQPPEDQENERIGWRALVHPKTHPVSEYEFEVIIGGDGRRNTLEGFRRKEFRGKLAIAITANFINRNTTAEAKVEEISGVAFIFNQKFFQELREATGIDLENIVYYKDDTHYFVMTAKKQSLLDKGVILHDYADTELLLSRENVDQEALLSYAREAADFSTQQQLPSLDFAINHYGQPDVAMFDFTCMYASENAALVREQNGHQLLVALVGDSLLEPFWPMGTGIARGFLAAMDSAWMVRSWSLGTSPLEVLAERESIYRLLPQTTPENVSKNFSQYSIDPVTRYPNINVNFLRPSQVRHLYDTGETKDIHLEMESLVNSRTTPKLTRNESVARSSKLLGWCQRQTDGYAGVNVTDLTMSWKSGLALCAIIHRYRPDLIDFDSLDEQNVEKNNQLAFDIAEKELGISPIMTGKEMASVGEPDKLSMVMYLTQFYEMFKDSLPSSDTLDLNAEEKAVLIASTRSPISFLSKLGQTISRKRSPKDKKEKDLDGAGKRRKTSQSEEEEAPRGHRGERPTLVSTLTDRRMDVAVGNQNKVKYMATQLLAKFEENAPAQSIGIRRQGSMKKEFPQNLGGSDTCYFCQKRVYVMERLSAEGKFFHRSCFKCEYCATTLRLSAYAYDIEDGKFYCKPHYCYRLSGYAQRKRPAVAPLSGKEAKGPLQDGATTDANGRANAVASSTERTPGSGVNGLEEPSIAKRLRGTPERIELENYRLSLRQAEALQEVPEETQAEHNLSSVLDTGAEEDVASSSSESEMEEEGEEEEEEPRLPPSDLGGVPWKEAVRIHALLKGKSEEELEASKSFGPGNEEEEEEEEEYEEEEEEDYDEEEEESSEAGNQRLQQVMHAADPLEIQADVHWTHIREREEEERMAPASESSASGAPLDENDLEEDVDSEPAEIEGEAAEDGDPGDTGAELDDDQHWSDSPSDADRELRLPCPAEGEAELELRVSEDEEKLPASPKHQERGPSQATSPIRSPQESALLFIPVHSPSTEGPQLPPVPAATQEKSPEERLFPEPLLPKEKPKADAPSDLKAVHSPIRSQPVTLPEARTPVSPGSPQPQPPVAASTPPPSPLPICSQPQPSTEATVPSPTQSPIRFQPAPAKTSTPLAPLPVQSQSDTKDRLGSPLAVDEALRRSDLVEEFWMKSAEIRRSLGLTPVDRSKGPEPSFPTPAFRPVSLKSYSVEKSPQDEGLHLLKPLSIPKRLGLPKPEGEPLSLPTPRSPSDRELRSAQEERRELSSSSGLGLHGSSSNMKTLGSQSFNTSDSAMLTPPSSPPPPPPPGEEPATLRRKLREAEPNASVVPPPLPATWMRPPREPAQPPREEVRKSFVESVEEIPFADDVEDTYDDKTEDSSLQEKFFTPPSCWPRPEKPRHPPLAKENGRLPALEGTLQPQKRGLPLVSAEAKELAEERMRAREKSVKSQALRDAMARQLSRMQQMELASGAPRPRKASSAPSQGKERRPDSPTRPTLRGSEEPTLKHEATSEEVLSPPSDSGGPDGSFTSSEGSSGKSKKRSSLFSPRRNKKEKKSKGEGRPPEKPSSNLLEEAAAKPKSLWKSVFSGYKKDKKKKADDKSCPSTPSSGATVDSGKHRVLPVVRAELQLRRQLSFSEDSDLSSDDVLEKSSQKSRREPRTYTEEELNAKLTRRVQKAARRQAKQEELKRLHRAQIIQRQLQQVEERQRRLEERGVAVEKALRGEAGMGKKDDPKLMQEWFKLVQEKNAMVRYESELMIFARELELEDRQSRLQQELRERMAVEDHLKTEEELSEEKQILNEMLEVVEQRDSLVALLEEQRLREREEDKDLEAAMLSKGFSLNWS
UniProt Q16643: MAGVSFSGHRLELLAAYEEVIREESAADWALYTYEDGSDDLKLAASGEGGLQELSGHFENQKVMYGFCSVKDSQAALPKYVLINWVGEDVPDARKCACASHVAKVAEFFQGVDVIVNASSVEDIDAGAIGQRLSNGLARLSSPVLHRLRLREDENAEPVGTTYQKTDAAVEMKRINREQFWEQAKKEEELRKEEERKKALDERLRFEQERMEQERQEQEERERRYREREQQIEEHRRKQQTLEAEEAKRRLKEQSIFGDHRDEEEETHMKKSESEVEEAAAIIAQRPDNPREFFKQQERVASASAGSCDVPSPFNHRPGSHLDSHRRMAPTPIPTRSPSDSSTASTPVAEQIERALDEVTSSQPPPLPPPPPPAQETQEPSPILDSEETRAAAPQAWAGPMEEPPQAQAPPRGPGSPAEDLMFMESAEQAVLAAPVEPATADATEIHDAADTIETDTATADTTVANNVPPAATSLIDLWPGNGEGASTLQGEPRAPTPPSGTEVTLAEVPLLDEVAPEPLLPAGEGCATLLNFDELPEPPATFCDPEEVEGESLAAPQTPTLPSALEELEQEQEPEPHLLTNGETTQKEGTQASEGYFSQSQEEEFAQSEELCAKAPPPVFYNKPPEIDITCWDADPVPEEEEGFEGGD
UniProt Q14166: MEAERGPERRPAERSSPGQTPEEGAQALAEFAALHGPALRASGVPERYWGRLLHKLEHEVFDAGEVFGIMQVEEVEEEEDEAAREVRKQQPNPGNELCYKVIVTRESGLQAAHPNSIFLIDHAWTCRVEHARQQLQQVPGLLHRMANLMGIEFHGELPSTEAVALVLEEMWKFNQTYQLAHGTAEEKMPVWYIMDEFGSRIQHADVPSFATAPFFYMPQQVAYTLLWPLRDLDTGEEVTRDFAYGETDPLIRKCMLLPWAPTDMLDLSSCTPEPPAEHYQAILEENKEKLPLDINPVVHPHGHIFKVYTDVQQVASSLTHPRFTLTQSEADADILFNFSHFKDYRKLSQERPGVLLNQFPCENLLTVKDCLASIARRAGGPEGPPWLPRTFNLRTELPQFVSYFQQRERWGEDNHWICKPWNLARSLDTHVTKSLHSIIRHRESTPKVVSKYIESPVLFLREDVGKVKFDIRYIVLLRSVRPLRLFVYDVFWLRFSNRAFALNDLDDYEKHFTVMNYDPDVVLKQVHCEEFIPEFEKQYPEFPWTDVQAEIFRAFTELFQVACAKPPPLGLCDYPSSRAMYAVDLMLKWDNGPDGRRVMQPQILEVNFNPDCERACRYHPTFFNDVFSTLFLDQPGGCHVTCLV
UniProt Q9NWY4: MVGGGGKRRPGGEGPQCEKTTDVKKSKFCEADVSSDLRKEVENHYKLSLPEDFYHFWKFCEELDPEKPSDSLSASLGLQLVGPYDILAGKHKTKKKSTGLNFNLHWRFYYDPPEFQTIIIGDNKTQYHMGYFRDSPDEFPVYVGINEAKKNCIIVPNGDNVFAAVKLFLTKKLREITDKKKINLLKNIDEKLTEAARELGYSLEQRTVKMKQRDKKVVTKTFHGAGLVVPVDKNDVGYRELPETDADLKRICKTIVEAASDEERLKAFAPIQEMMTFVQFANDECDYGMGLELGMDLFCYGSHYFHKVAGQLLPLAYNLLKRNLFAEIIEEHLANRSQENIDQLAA
UniProt Q14520: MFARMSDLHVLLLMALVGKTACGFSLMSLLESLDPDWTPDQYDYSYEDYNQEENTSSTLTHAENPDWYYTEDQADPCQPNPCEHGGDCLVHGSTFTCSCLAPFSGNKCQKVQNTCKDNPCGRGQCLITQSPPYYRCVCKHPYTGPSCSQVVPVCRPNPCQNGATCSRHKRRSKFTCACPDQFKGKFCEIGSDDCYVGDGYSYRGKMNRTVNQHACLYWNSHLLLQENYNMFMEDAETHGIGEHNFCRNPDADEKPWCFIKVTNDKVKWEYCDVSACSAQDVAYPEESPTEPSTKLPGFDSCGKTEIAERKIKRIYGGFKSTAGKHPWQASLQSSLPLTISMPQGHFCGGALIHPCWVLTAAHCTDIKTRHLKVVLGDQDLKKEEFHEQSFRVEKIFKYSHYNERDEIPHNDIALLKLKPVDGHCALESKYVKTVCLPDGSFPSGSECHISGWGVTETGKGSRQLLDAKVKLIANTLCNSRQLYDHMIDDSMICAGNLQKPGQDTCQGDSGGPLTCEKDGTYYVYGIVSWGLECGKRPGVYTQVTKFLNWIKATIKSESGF
UniProt Q96AB3: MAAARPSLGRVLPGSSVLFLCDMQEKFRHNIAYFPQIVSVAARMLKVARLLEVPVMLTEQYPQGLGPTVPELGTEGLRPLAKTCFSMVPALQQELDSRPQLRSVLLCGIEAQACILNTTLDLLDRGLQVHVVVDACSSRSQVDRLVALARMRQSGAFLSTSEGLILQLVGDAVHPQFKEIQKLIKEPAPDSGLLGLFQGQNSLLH
UniProt Q9NYP3: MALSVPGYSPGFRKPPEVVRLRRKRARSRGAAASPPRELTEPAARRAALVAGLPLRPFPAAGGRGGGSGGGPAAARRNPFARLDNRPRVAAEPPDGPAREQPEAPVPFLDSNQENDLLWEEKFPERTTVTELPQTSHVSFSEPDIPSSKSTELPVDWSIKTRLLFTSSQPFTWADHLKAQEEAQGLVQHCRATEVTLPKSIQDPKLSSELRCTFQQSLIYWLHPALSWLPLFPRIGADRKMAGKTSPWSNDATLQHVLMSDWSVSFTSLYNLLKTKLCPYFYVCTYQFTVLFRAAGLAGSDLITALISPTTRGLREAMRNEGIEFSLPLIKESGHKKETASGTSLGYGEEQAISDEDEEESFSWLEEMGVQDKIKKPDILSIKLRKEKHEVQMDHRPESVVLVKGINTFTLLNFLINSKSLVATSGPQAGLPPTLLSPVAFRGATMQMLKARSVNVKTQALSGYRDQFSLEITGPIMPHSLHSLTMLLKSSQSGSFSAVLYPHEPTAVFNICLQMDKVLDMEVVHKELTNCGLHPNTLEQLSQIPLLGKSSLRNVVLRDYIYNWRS
UniProt O95630, whole entry: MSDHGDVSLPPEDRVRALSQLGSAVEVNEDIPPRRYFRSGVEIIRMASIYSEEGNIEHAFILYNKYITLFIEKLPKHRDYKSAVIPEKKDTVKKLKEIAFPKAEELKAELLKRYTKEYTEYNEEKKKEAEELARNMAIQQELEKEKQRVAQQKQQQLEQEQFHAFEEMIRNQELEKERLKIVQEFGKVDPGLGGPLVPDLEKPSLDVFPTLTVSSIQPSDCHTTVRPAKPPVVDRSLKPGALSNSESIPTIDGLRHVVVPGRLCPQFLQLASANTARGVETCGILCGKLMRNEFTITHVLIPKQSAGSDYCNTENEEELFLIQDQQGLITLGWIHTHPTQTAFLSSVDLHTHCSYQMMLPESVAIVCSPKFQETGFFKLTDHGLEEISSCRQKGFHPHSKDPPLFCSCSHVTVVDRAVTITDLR
UniProt Q5C9Z4: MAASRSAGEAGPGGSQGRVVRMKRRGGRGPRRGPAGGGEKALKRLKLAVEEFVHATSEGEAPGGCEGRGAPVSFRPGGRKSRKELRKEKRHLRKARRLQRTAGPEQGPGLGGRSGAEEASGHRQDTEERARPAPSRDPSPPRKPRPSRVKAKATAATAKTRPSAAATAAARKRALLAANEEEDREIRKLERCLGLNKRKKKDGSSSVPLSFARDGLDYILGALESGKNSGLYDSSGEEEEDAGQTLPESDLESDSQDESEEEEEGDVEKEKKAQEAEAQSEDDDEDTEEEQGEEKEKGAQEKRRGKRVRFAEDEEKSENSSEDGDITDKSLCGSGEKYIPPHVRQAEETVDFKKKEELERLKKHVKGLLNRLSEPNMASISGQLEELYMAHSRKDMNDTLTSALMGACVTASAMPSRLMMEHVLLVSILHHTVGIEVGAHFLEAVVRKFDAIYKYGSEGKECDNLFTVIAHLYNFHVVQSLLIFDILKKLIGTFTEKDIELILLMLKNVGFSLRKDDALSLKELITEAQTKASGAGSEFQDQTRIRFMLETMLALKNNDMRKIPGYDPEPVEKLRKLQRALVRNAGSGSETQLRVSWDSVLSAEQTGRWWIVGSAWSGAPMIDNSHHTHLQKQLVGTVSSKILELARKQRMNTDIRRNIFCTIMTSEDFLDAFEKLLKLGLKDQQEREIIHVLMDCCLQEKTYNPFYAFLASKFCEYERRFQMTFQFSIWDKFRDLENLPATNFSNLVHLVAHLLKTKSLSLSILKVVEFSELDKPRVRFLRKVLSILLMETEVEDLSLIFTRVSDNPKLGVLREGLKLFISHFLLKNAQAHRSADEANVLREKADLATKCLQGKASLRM

Compound: [O-][N+](C(C1=C(C(O)=C2)NC(C(C=C3)=CC=C3Cl)C4C1C=CC4)=C2Cl)=O
Assay: melting temperature shift (compound 7 minus DMSO); higher = compound stabilises the protein
Conditions: 10 µM
Method: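 Thermal proteome profiling (TMT mass spectrometry) in intact DAOY medulloblastoma cells or DAOY lysates treated with 10 µM compound 7 or DMSO, heated at 10 temperatures from 40.5 to 73.8 °C for 3 min. Melting curves were fitted with the Bioconductor TPP package, and the melting point difference between compound and vehicle is reported per protein (single curve per condition).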

[1] = system: DAOY cell lysate, treatment time: 20 min, 4 °C
[2] = system: intact DAOY cells, treatment time: 90 min, 37 °C

Target | melting temperature shift [1] [°C] | melting temperature shift [2] [°C]
ETFB (UniProt P38117) | 0.48 | 0.0614
PLOD3 (UniProt O60568) | 1.17 | 0.532
DIAPH1 (UniProt O60610) | -0.482 | 0.245
UniProt Q12962 | -1.91 | -0.793
FBXO28 (UniProt Q9NVF7) | 0.0555 | –
UniProt Q9Y2J2 | 0.97 | -0.127
TNS3 (UniProt Q68CZ2) | -0.919 | 0.104
UniProt Q9NZ42 | 6.01 | –
UniProt Q9HA92 | 2.06 | –
ETF1 (UniProt P62495) | -0.299 | -0.617
PEF1 (UniProt Q9UBV8) | -1.27 | -0.157
RPE (UniProt Q96AT9) | 1.25 | –
SMARCAD1 (UniProt Q9H4L7) | -0.393 | -1.9
NOC4L (UniProt Q9BVI4) | 0.421 | –
STX7 (UniProt O15400) | 1.57 | –
BUD31 (UniProt P41223) | 0.278 | -0.25
BCAR3 (UniProt O75815) | -0.304 | -0.287
MICAL3 (UniProt Q7RTP6) | 1.54 | 0.332
SLC38A10 (UniProt Q9HBR0) | -3.29 | -3.75
UniProt P01579 | – | -3.12
TPX2 (UniProt Q9ULW0) | 0.948 | –
UniProt Q5TEC6 | – | -0.0663
UniProt Q12999 | -0.802 | –
PAF1 (UniProt Q8N7H5) | -0.654 | -1.27

Target | melting temperature shift [1] [°C] | melting temperature shift [2] [°C]
A0A0U1RRI6, A0A0U1RRI6 | – | -0.554
FEN1 (UniProt P39748) | -0.296 | 0.157
FKBP5 (UniProt Q13451) | -0.436 | -0.1
UniProt Q16181 | -0.0892 | 0.101
SLC16A1 (UniProt P53985) | 5.99 | –
PIP5K1A (UniProt Q99755) | 0.701 | -2.83
ABI2 (UniProt Q9NYB9) | -0.701 | 1.24
DDX19A (UniProt Q9NUU7) | -0.54 | -0.954
NFYB (UniProt P25208) | 1.93 | -2.46
FUT11 (UniProt Q495W5) | 1.27 | –
DBN1 (UniProt Q16643) | – | 0.844
AP2B1 (UniProt P63010) | -0.233 | -0.114
ASCC1 (UniProt Q8N9N2) | -0.425 | 0.679
UFD1L (UniProt Q92890) | -0.119 | -1.01
VPS45 (UniProt Q9NRW7) | -0.831 | -0.0211
BLOC1S5 (UniProt Q8TDH9) | – | 2.87
LETMD1 (UniProt Q6P1Q0) | -0.0359 | 1.94
MDC1 (UniProt Q14676) | -1.4 | 1.95
HUWE1 (UniProt Q7Z6Z7) | -0.502 | 0.173
UniProt Q99732 | 1.8 | –
UniProt Q8WV07 | -0.409 | –
PHF6 (UniProt Q8IWS0) | 0.771 | 0.382
TTLL12 (UniProt Q14166) | -1.1 | 0.202
MIS12 (UniProt Q9H081) | -2.56 | –

Target | melting temperature shift [1] [°C] | melting temperature shift [2] [°C]
NCAPG2 (UniProt Q86XI2) | -1.93 | -1.38
UXT (UniProt Q9UBK9) | -0.512 | 1.04
UniProt Q15051 | 0.0941 | –
TMEM41A (UniProt Q96HV5) | -0.0395 | –
CCNDBP1 (UniProt O95273) | -0.897 | –
UniProt Q9NWY4 | 0.844 | –
UniProt P55347 | -1.96 | –
UniProt Q8IVL0 | – | -0.346
FRYL (UniProt O94915) | -1.13 | -0.132
PPP2R2A (UniProt P63151) | -0.804 | -0.359
TMEM2 (UniProt Q9UHN6) | -0.797 | -3.27
PPT1 (UniProt P50897) | -0.253 | -4.25
RPRD1B (UniProt Q9NQG5) | -0.086 | -0.332
ASS1 (UniProt P00966) | – | -0.639
SPTBN1 (UniProt Q01082) | 0.0574 | 0.748
PNO1 (UniProt Q9NRX1) | 0.694 | 0.389
SLC5A6 (UniProt Q9Y289) | -0.142 | -2.48
CISD1 (UniProt Q9NZ45) | 1.7 | –
UniProt Q14520 | -1.01 | 0.0417
FOXP4 (UniProt Q8IVH2) | 2.1 | –
FAM21C (UniProt Q9Y4E1) | 2.82 | 0.332
UniProt P50440 | -0.00519 | 0.848
UniProt O43294 | -0.942 | –
EFHD2 (UniProt Q96C19) | -0.337 | 0.0401

Target | melting temperature shift [1] [°C] | melting temperature shift [2] [°C]
EIF3H (UniProt O15372) | -0.486 | 0.724
STOM (UniProt P27105) | 2.66 | -0.713
UniProt O15523 | – | 0.245
UniProt Q6P2I7 | -1.01 | –
USP33 (UniProt Q8TEY7) | 1.1 | 0.42
CCT4 (UniProt P50991) | -0.161 | -0.379
RPL26 (UniProt P61254) | -0.164 | -0.984
UniProt P50479 | -2.48 | -0.0579
PANK4 (UniProt Q9NVE7) | -0.273 | -1.83
UniProt P48730 | -0.565 | -0.549
PHLDA2 (UniProt Q53GA4) | – | 0.468
UniProt Q96AB3 | 0.23 | -1.46
C2CD2 (UniProt Q9Y426) | – | 2.66
PRKAR1A (UniProt P10644) | 0.714 | -0.144
TTYH3 (UniProt Q9C0H2) | 0.279 | –
AKT1 (UniProt P31749) | -0.653 | 1.59
MMGT1 (UniProt Q8N4V1) | 0.948 | -0.202
GSTZ1 (UniProt O43708) | -1.04 | -0.976
CETN3 (UniProt O15182) | -0.461 | 1.21
A0A024RBG1, A0A024RBG1 | – | -0.346
UniProt Q9NYP3 | -2.2 | –
STAMBP (UniProt O95630) | 0.23 | -0.0669
ACTR1B (UniProt P42025) | -0.474 | -0.39
YBX1 (UniProt P67809) | 0.538 | –

As a short view, part of the list above:
Target | melting temperature shift [1] [°C] | melting temperature shift [2] [°C]
FUT11 (UniProt Q495W5) | 1.27 | –
DBN1 (UniProt Q16643) | – | 0.844
AP2B1 (UniProt P63010) | -0.233 | -0.114
ASCC1 (UniProt Q8N9N2) | -0.425 | 0.679
UFD1L (UniProt Q92890) | -0.119 | -1.01

Continued.

Target | melting temperature shift [1] [°C] | melting temperature shift [2] [°C]
UniProt O75121 | – | 1.19
CLEC16A (UniProt Q2KHT3) | – | 1.57
CAMSAP2 (UniProt Q08AD1) | -0.269 | -0.985
SNCA (UniProt P37840) | -0.969 | –
UniProt Q969P6 | – | 0.296
SLAIN2 (UniProt Q9P270) | -0.0602 | –
SNX1 (UniProt Q13596) | -0.643 | -1.42
XPO1 (UniProt O14980) | -0.783 | -1.35
NUMB (UniProt P49757) | -0.00145 | 0.104
AP4B1 (UniProt Q9Y6B7) | 0.0439 | 0.14
CAPN1 (UniProt P07384) | -0.622 | 0.561
MRPL2 (UniProt Q5T653) | 3.85 | -1.31
UniProt P22090 | – | -0.728
PC (UniProt P11498) | 0.885 | -1.25
UniProt Q9NS73 | 0.441 | –
MLLT4 (UniProt P55196) | -0.28 | -0.219
RING1 (UniProt Q06587) | -1.21 | 0.362
NME3 (UniProt Q13232) | -1.66 | 4.48
UniProt Q5C9Z4 | -0.0319 | –
PPM1B (UniProt O75688) | -0.539 | -0.0138
SASS6 (UniProt Q6UVJ0) | -0.0814 | -0.803
